Consider six molecules from publication doi:10.1101/2020.05.11.089656.

Protein sequences, listed by entry. Tags and fused reporters are not part of them.
UniProt P46940: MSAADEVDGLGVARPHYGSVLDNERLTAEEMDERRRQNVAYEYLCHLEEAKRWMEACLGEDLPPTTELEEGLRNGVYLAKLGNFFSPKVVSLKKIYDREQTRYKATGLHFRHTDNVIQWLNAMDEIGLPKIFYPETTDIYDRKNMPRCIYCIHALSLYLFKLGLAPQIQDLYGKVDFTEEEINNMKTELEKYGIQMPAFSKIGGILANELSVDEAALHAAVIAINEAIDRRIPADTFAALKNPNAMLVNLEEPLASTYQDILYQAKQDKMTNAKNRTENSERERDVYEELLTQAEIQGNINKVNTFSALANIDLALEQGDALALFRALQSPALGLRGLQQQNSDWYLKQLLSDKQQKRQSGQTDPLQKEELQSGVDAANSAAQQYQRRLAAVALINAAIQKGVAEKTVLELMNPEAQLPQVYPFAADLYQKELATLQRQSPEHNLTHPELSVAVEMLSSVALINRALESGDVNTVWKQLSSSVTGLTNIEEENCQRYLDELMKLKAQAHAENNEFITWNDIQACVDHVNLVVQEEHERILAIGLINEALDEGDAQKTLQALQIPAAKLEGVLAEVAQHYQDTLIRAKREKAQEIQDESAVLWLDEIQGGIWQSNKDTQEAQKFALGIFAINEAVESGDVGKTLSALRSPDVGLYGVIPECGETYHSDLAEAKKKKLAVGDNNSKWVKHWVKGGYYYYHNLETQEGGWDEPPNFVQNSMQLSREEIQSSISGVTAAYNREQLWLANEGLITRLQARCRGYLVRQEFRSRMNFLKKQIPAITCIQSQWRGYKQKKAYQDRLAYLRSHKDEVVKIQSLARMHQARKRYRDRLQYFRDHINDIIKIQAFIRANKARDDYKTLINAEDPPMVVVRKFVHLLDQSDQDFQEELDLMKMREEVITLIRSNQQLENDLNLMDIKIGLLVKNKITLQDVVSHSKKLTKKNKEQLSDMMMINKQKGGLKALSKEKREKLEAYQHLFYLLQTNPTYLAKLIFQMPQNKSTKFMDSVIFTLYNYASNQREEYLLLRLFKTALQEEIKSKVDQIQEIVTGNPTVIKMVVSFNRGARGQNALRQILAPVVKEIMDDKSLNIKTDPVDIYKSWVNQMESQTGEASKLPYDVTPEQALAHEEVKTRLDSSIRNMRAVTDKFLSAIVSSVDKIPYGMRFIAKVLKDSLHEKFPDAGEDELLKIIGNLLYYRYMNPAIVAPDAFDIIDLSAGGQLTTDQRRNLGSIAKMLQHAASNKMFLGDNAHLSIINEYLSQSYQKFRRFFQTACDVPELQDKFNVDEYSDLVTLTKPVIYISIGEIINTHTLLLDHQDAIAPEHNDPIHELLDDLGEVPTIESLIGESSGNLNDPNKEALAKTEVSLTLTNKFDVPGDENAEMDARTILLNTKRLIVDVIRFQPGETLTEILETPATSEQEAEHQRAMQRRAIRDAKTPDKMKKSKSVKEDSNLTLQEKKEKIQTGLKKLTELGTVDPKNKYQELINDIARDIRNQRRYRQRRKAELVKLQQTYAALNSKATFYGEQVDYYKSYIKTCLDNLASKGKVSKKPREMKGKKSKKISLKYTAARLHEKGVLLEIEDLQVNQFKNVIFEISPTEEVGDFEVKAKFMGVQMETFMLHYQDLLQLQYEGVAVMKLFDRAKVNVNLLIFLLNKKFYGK
UniProt Q16630: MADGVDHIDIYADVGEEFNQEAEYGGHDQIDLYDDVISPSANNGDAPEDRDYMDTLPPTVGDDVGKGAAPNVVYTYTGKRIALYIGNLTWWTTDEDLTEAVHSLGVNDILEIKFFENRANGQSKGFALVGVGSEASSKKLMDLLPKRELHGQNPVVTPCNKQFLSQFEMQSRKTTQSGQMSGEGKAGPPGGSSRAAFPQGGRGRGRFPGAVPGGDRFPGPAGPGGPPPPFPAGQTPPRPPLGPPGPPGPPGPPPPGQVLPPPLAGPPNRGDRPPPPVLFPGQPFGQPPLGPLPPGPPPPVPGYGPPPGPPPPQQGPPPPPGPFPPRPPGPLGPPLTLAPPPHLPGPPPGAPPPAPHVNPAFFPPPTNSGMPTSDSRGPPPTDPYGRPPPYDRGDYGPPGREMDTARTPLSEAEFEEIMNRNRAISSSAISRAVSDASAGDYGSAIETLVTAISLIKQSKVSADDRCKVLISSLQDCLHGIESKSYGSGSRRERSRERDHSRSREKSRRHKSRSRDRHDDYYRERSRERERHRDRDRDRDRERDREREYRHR
UniProt Q92841: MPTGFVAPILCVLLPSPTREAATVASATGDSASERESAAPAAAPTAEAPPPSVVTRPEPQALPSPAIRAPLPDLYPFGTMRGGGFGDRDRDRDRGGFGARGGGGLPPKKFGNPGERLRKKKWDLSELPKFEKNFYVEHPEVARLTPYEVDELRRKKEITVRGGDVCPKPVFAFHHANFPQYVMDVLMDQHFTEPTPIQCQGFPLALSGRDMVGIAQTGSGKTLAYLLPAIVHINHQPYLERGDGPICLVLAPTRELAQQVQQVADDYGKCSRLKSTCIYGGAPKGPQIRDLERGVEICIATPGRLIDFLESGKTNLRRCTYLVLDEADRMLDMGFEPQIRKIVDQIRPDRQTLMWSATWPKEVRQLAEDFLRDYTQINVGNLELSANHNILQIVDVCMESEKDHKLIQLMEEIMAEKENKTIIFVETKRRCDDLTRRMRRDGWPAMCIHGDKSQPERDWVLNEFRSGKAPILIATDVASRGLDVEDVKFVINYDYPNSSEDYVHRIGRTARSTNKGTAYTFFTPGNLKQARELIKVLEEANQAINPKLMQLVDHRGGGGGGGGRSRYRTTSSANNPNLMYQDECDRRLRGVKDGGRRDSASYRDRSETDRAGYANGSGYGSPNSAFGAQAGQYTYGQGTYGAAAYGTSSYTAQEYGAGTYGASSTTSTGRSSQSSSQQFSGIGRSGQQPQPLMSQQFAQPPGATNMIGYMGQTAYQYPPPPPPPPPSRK
UniProt Q07955: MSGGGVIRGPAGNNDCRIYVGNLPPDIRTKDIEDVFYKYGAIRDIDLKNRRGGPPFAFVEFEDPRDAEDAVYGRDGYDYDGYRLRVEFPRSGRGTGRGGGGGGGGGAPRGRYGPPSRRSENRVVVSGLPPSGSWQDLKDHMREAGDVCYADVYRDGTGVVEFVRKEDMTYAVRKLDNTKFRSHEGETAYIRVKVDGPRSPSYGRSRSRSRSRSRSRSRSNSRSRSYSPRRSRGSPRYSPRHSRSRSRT

B1: ILF3/NF90 (protein, UniProt Q12906 1-894)
chain: MRPMRIFVNDDRHVMAKHSSVYPTQEELEAVQNMVSHTERALKAVSDWIDEQEKGSSEQAESDNMDVPPEDDSKEGAGEQKTEHMTRTLRGVMRVGLVAKGLLLKGDLDLELVLLCKEKPTTALLDKVADNLAIQLAAVTEDKYEILQSVDDAAIVIKNTKEPPLSLTIHLTSPVVREEMEKVLAGETLSVNDPPDVLDRQKCLAALASLRHAKWFQARANGLKSCVIVIRVLRDLCTRVPTWGPLRGWPLELLCEKSIGTANRPMGAGEALRRVLECLASGIVMPDGSGIYDPCEKEATDAIGHLDRQQREDITQSAQHALRLAAFGQLHKVLGMDPLPSKMPKKPKNENPVDYTVQIPPSTTYAITPMKRPMEEDGEEKSPSKKKKKIQKKEEKAEPPQAMNALMRLNQLKPGLQYKLVSQTGPVHAPIFTMSVEVDGNSFEASGPSKKTAKLHVAVKVLQDMGLPTGAEGRDSSKGEDSAEETEAKPAVVAPAPVVEAVSTPSAAFPSDATAEQGPILTKHGKNPVMELNEKRRGLKYELISETGGSHDKRFVMEVEVDGQKFQGAGSNKKVAKAYAALAALEKLFPDTPLALDANKKKRAPVPVRGGPKFAAKPHNPGFGMGGPMHNEVPPPPNLRGRGRGGSIRGRGRGRGFGGANHGGYMNAGAGYGSYGYGGNSATAGYSQFYSNGGHSGNASGGGGGGGGGSSGYGSYYQGDNYNSPVPPKHAGKKQPHGGQQKPSYGSGYQSHQGQQQSYNQSPYSNYGPPQGKQKGYNHGQGSYSYSNSYNSPGGGGGSDYNYESKFNYSGSGGRSGGNSYGSGGASYNPGSHGGYGGGSGGGSSYQGKQGGYSQSNYNSPGSGQNYSGPPSSYQSSQGGYGRNADHSMNYQYR
B2: hnRNPL (protein, UniProt P14866 1-589)
chain: MSRRLLPRAEKRRRRLEQRQQPDEQRRRSGAMVKMAAAGGGGGGGRYYGGGSEGGRAPKRLKTDNAGDQHGGGGGGGGGAGAAGGGGGGENYDDPHKTPASPVVHIRGLIDGVVEADLVEALQEFGPISYVVVMPKKRQALVEFEDVLGACNAVNYAADNQIYIAGHPAFVNYSTSQKISRPGDSDDSRSVNSVLLFTILNPIYSITTDVLYTICNPCGPVQRIVIFRKNGVQAMVEFDSVQSAQRAKASLNGADIYSGCCTLKIEYAKPTRLNVFKNDQDTWDYTNPNLSGQGDPGSNPNKRQRQPPLLGDHPAEYGGPHGGYHSHYHDEGYGPPPPHYEGRRMGPPVGGHRRGPSRYGPQYGHPPPPPPPPEYGPHADSPVLMVYGLDQSKMNCDRVFNVFCLYGNVEKVKFMKSKPGAAMVEMADGYAVDRAITHLNNNFMFGQKLNVCVSKQPAIMPGQSYGLEDGSCSYKDFSESRNNRFSTPEQAAKNRIQHPSNVLHFFNAPLEVTEENFFEICDELGVKRPSSVKVFSGKSERSSSGLLEWESKSDALETLGFLNHYQMKNPNGPYPYTLKLCFSTAQHAS
B3: heterogeneous nuclear ribonucleoprotein M (hnRNPM) (protein, UniProt P52272 1-730)
chain: MAAGVEAAAEVAATEIKMEEESGAPGVPSGNGAPGPKGEGERPAQNEKRKEKNIKRGGNRFEPYANPTKRYRAFITNIPFDVKWQSLKDLVKEKVGEVTYVELLMDAEGKSRGCAVVEFKMEESMKKAAEVLNKHSLSGRPLKVKEDPDGEHARRAMQKVMATTGGMGMGPGGPGMITIPPSILNNPNIPNEIIHALQAGRLGSTVFVANLDYKVGWKKLKEVFSMAGVVVRADILEDKDGKSRGIGTVTFEQSIEAVQAISMFNGQLLFDRPMHVKMDERALPKGDFFPPERPQQLPHGLGGIGMGLGPGGQPIDANHLNKGIGMGNIGPAGMGMEGIGFGINKMGGMEGPFGGGMENMGRFGSGMNMGRINEILSNALKRGEIIAKQGGGGGGGSVPGIERMGPGIDRLGGAGMERMGAGLGHGMDRVGSEIERMGLVMDRMGSVERMGSGIERMGPLGLDHMASSIERMGQTMERIGSGVERMGAGMGFGLERMAAPIDRVGQTIERMGSGVERMGPAIERMGLSMERMVPAGMGAGLERMGPVMDRMATGLERMGANNLERMGLERMGANSLERMGLERMGANSLERMGPAMGPALGAGIERMGLAMGGGGGASFDRAIEMERGNFGGSFAGSFGGAGGHAPGVARKACQIFVRNLPFDFTWKMLKDKFNECGHVLYADIKMENGKSKGCGVVKFESPEVAERACRMMNGMKLSGREIDVRIDRNA

No constants are given. Whether binding was seen depends on the method and setting. Binding seen in cells or lysates may run through a third protein. These calls come from enrichment with a bait or labelling near it, and not all partners need be listed.

For the first assay, the target named is IQGAP1 (IQ Motif Containing GTPase Activating Protein 1) (human (endogenous in NUGC4 and MKN45)) (UniProt P46940). Briefly: affinity purification with mass spectrometry.
For the molecule CPSF6 (from UniProt Q16630 1-551), the binding result is recorded as “binds”. As for DDX17 (from UniProt Q92841 1-729), the binding result was “binds”. For the molecule SRSF1 (from UniProt Q07955 1-248), the binding result is recorded as “binds”.

Another assay has the same target. Kind of assay: affinity purification with mass spectrometry. The source holds these as a separate data set.
With B1, the binding result is on record as “binds”. As for B2, the binding entry is “binds”. Take B3: the binding entry was “binds”.
